Source: paper PMC4974663
No constants are given. Whether binding was seen depends on the method and setting. For some assays here: Binding seen in cells or lysates may run through a third protein. Some results given as binding are weak or reduced against the parent protein; the word gives no strength. For some assays here: Sequences can lack the tags named with a protein.

Amino acid sequences for entries named in this document (tags omitted).
UniProt Q9Y3D8: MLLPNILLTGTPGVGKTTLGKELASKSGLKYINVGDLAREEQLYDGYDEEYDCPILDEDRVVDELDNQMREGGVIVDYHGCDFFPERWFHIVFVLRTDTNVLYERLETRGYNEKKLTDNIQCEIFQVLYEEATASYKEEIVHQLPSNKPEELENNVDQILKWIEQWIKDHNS

Key:
[1] = target: T1, Nob1 (in the GST pull-down with hCINAP) (UniProt Q9ULX3); assay: pull-down; in vitro GST pull-down of hCINAP and Nob1; which protein carried GST is not told; both purified
T1 sequence: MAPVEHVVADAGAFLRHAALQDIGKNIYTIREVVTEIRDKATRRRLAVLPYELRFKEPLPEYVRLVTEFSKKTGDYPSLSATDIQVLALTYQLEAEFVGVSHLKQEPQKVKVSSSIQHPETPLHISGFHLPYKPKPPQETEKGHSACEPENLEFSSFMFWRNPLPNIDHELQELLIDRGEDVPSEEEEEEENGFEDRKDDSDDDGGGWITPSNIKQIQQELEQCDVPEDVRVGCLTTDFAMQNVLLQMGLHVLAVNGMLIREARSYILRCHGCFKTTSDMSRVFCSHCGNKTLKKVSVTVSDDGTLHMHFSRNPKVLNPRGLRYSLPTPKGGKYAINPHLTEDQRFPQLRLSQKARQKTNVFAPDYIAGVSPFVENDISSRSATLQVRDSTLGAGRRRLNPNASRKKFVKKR

[2] = target: T2, Nob1 (in the co-IP with hCINAP) (UniProt Q9ULX3); assay: co-IP; co-IP of Nob1 and hCINAP (Supplementary Fig. 3i); cells and constructs not told
T2 sequence: T1 sequence

binding [1]	binding [2]	Substance
binds		hCINAP (in the GST pull-down with Nob1) (from UniProt Q9Y3D8 1-172) (enzyme)
	binds	hCINAP (in the co-IP with Nob1) (from UniProt Q9Y3D8 1-172) (enzyme)
